Laboratory results: PubChem BioAssay AID1671195 (Yale University, 2021)
In all, the deposit lists about 22,000 reagents; below is a part drawn at random. About 1,510 of all reagents (6.9%) were called active. 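Active includes knockdowns raising or lowering LDL uptake; positive z-scores mean more uptake, negative mean less.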 A number with no mark means an inactive call. No sequences are given here.

Screen: 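Knockdowns that increase or decrease uptake of fluorescent LDL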 (primary screen)
Cell system: human Huh7 hepatoma cells
Reagent: siRNA pool against human genes, 18 nM
Duration: about 2 to 2.5 days of knockdown, then 8 h LDL uptake
Conditions: DiI-labelled LDL at 30 µg/ml for 8 h, in lipoprotein-deficient serum medium
Read-out: 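Fluorescent LDL signal imaged in cells, scaled to the plate median, robust z-score for each replicate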
Scale: robust z-score: higher = more LDL uptake after knockdown
Call rule: 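a gene counts as active if at least two replicate z-scores exceed ±2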

target gene	PubChem SID	robust z-score, replicate 1	robust z-score, replicate 2	robust z-score, replicate 3
CHRM2	SID442904079	-1.9	-1.43	-1.12
KIF27P2	SID442885702	1.19	1.5	1.52
HABP2	SID442904685	-1.86	-1.51	-2.04
ESYT1	SID442886800	0.591	1.12	1.47
LOC442278 (retired record)	SID442892383	0.604	0.164	-0.245
SPANXN5	SID442887959	1.24	0.649	0.535
LOC441245 (retired record)	SID442883984	2.24 (active)	1.91	2.14
ALAS2	SID442889701	0.694	0.564	0.302
TBCE	SID442883942	2.06 (active)	1.93	2.42
RPSAP20	SID442889716	0.761	0.656	0.138
PPIL4	SID442896323	-0.276	-0.113	-0.39
CRYBB2	SID442899047	-1.13	0.177	-0.758
ALG10	SID442894080	0.0513	0.147	-0.271
FLYWCH2	SID442888864	0.595	0.681	0.669
PSMA6	SID442892284	-0.12	0.426	0.255
OR11A1	SID442896150	-0.38	-0.661	0.312
DEFB134	SID442886455	1.14	1.34	0.983
MPI	SID442894852	-0.127	-0.0742	-0.12
LOC440478 (retired record)	SID442897139	-0.335	-0.22	-0.499
BCDIN3D	SID442899574	-0.717	-0.709	-0.49
FAIM	SID442892816	0.207	-0.726	0.882
MEIOC	SID442898950	-0.709	-0.382	-0.585
LOC440175 (retired record)	SID442900310	-0.665	-0.738	-0.83
TRNP1	SID442889290	0.687	0.595	0.468
SPNS2	SID442901506	-0.731	-0.816	-1.18
ZNF441	SID442888138	0.835	0.393	1.1
SDS	SID442883639	2.5 (active)	2.48	2.59
USP29	SID442899531	-0.834	-0.526	-0.535
LOC389685 (retired record)	SID442888708	0.746	0.513	0.769
LOC441306 (retired record)	SID442886527	0.901	1.35	1.16
GHRH	SID442891899	-0.365	1.13	-0.0673
DCAKD	SID442903194	-1.12	-1.4	-1.2
PBLD	SID442890828	0.504	0.174	0.416
ARRDC3	SID442883608	3.29 (active)	2.5	1.96
CMTM2	SID442897563	-0.291	-0.447	-0.46
FIGNL2	SID442887254	1.39	0.557	0.908
TDRD5	SID442890362	0.826	0.377	0.0787

Reagents above marked active, once more:
target gene	PubChem SID	robust z-score, replicate 1	robust z-score, replicate 2	robust z-score, replicate 3
LOC441245 (retired record)	SID442883984	2.24 (active)	1.91	2.14
TBCE	SID442883942	2.06 (active)	1.93	2.42
SDS	SID442883639	2.5 (active)	2.48	2.59
ARRDC3	SID442883608	3.29 (active)	2.5	1.96

More records follow.
target gene	PubChem SID	robust z-score, replicate 1	robust z-score, replicate 2	robust z-score, replicate 3
XPNPEP3	SID442887794	0.795	0.919	0.806
TMEM132B	SID442896697	-0.7	-0.303	0.0971
TMEM132B	SID442898629	0.237	-1.22	-0.578
WNK2	SID442895099	0.109	-0.888	0.38
A1CF	SID442897353	0.513	0.719	-2.36
LOC440090 (retired record)	SID442898837	-0.903	-0.535	-0.193
NAGA	SID442897915	-2.15	0.331	0.5
CYP2E1	SID442898464	-0.584	-0.637	-0.282
KATNBL1	SID442892082	0.193	0.263	0.175
ALG8	SID442888053	0.576	1.35	0.443
LOC440825 (retired record)	SID442894599	0.47	-0.203	-0.508
ASIC5	SID442889611	0.612	0.455	0.535
NEK8	SID442896754	0.117	-0.44	-0.605
OR9G9	SID442883474	3.36 (active)	2.77	2.36
CCL17	SID442895542	-0.483	0.0898	-0.145
CNNM1	SID442891173	1.82	-0.362	-0.495
LOC439967 (retired record)	SID442895169	-0.275	0.0119	-0.163
SSRP1	SID442883965	2.04 (active)	2.64	1.66
CDR1	SID442888990	0.962	-0.87	1.8
LOC347421 (retired record)	SID442896644	-0.514	-0.463	0.0895
MAGED1	SID442886669	1.11	1.77	0.402
HMHB1	SID442893141	-0.0669	-0.2	0.519
FZD7	SID442901270	-1.06	-0.825	-0.737
FAM193A	SID442888029	-0.165	1.91	0.634
KLF10	SID442884918	1.77	1.67	1.91
PRC1	SID442889722	1.3	0.535	-0.286
HSPA12A	SID442886962	1.09	0.788	1.18
LOC389803 (retired record)	SID442891028	0.411	0.399	0.209
GCDH	SID442889099	0.704	0.202	0.933
LMNA	SID442895183	0.236	-0.153	-0.515
IRAG1	SID442893175	0.326	0.595	-0.681
